This is one part of the list.
These targets were tested with COc1ccc(Cn2ccc3ccc(C(=O)NO)cc32)cc1 (assay: dose-dependent thermal stabilisation call (2D-TPP, DLPTP, 10% FDR) (binary (1 = stabilised)); higher = stabilised by the compound). Details: system: HL-60 intact cells; concentration range 0.04-10 µM.

Chains of the proteins cited; added tags and fusions are not shown. Lines headed by an entry give the natural chain unless they say otherwise; changes in a name come on top.
UniProt Q96A26: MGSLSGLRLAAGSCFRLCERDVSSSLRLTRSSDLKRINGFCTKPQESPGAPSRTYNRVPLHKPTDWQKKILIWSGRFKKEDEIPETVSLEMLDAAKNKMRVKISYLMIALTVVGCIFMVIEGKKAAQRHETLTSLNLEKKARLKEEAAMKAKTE
UniProt Q8IWF6: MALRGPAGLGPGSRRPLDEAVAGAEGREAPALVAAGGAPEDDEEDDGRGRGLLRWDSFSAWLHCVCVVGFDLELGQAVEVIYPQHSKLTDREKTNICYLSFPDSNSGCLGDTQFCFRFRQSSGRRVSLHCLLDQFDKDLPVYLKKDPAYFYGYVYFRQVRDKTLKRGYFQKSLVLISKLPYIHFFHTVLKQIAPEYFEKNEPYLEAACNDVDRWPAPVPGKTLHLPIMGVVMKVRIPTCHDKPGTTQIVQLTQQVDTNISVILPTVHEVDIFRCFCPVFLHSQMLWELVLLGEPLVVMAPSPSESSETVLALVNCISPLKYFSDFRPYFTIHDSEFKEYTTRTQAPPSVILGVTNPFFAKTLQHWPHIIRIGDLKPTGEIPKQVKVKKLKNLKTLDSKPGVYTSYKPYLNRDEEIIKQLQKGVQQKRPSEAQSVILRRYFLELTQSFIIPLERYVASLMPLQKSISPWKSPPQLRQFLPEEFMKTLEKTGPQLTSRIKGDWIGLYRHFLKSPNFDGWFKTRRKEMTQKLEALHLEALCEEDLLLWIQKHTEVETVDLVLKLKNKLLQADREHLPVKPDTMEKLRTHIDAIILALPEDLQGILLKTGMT
UniProt Q99504: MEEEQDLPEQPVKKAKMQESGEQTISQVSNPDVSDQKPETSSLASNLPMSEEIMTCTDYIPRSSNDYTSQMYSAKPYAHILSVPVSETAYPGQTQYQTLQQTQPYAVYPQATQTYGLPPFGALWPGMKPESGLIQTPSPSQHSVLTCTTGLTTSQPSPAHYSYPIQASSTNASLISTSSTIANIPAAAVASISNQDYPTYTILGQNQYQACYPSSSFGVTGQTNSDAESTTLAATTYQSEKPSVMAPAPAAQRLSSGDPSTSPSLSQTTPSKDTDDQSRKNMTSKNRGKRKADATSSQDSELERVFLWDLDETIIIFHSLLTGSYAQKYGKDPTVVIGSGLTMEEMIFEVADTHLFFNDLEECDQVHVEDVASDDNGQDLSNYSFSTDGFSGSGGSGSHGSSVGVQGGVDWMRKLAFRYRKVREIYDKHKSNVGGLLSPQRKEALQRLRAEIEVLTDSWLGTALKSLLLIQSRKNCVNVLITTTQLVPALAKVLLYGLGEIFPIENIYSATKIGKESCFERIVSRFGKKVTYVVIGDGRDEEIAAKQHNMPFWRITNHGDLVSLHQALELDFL
UniProt Q8N128: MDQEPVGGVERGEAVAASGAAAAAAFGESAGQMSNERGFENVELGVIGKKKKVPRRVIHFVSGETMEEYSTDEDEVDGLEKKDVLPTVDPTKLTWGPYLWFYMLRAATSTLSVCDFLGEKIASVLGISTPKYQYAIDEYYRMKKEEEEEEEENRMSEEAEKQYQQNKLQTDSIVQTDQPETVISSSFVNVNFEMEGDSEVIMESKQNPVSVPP
UniProt Q8NHM5: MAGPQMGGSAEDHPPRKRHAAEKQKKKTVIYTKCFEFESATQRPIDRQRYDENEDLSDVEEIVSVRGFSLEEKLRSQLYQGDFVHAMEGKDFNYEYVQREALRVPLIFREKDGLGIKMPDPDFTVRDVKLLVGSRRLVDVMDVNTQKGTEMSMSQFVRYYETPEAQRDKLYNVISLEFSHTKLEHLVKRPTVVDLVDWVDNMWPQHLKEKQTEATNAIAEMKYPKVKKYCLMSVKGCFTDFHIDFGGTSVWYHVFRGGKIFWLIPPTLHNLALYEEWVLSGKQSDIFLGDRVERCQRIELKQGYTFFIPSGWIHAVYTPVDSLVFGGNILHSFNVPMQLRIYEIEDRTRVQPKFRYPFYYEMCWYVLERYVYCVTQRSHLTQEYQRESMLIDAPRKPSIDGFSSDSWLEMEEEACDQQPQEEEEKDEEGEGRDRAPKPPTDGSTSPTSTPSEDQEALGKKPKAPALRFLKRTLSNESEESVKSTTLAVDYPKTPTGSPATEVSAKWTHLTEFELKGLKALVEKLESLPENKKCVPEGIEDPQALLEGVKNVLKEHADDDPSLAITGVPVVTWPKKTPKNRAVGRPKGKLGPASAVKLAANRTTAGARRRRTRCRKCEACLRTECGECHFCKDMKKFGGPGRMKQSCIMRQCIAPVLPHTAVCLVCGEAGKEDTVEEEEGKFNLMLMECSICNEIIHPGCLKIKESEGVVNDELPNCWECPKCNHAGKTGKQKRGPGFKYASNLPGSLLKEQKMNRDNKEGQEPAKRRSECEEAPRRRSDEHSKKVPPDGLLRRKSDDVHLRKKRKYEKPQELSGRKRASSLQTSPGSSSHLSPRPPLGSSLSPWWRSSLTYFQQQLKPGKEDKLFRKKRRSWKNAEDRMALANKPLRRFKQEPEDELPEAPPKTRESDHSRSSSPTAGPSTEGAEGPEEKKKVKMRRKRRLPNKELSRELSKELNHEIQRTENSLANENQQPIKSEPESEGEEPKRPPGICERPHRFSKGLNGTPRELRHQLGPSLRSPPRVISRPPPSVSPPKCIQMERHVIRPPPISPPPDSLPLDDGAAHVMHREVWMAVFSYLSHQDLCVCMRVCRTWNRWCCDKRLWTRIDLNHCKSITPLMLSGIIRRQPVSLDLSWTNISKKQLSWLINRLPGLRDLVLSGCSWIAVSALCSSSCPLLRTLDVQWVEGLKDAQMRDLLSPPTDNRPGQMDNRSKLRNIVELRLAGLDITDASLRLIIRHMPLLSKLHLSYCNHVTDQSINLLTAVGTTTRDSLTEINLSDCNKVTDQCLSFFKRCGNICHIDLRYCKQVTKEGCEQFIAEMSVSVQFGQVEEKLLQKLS
UniProt Q9BVC4, whole entry: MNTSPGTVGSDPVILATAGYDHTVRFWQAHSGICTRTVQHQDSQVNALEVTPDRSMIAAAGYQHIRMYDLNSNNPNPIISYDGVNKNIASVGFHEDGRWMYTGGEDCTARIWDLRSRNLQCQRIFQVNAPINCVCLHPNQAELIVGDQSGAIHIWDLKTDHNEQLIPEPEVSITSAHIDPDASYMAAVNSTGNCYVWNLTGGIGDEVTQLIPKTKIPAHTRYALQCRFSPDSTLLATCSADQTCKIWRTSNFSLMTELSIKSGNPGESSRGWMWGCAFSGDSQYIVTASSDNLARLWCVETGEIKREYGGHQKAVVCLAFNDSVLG
UniProt Q96AE4: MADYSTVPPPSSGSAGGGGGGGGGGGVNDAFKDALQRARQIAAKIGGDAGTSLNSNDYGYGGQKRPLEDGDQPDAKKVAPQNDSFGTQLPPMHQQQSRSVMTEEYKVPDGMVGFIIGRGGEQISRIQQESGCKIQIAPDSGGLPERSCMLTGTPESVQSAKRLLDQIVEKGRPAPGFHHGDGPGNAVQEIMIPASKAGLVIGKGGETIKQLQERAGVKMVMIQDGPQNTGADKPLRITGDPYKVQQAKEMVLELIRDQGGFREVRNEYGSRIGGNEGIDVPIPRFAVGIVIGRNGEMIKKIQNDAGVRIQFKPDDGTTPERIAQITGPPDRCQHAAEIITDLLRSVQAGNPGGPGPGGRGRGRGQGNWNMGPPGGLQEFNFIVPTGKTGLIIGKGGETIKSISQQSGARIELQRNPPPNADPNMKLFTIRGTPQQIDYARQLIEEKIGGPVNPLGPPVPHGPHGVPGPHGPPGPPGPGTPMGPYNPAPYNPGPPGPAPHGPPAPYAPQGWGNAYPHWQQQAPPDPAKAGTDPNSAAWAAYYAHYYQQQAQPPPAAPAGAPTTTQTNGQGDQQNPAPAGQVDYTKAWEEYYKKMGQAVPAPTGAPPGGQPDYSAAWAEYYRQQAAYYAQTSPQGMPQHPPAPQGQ
UniProt P49789: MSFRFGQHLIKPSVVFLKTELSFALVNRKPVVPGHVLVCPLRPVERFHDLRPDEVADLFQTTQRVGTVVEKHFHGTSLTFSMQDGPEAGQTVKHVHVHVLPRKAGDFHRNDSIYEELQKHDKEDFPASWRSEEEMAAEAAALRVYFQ
UniProt Q9H6L5: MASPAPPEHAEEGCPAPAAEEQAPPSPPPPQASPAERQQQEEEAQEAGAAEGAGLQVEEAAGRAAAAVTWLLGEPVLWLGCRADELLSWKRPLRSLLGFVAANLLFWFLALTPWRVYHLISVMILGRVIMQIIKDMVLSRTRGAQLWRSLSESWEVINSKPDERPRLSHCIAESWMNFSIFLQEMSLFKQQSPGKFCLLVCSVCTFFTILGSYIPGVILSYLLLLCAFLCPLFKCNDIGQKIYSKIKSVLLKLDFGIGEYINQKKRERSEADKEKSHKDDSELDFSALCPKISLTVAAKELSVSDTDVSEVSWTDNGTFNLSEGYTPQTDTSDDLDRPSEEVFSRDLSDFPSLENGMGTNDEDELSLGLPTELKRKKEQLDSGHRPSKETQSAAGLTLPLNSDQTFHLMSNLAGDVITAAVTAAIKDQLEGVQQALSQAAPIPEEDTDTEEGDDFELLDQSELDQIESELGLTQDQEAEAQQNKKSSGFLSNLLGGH
UniProt Q9HCG7: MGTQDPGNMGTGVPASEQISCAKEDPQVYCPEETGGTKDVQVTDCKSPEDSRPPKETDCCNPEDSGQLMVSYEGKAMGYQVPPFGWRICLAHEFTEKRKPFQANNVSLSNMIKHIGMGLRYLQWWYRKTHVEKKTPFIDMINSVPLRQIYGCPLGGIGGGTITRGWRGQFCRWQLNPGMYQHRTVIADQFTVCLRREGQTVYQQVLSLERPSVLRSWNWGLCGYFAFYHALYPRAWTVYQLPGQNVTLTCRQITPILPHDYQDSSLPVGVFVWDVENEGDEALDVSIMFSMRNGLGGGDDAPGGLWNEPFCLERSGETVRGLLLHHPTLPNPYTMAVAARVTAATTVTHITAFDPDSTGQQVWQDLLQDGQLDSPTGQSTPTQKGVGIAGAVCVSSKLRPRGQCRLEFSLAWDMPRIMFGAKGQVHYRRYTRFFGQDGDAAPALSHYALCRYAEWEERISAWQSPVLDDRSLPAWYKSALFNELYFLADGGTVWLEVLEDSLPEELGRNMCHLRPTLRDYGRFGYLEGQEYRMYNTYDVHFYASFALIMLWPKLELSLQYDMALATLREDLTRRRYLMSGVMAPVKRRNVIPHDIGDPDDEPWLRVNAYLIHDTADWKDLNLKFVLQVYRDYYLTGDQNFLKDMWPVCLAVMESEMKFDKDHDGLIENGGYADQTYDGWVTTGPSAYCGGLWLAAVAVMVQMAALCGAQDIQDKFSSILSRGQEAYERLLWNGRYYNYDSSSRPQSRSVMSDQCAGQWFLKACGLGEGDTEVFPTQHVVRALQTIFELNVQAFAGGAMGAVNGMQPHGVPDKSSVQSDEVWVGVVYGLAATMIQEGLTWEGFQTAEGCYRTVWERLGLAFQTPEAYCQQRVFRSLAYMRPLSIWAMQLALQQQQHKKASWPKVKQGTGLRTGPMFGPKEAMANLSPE
UniProt Q5VST6: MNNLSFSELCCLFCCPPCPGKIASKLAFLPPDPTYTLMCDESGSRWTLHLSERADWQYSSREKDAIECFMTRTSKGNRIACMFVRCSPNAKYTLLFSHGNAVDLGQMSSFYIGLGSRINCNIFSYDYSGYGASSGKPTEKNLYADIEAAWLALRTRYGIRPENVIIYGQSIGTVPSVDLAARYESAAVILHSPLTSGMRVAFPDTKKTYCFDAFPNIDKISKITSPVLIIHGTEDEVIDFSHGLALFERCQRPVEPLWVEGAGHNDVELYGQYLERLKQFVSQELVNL
UniProt P31995: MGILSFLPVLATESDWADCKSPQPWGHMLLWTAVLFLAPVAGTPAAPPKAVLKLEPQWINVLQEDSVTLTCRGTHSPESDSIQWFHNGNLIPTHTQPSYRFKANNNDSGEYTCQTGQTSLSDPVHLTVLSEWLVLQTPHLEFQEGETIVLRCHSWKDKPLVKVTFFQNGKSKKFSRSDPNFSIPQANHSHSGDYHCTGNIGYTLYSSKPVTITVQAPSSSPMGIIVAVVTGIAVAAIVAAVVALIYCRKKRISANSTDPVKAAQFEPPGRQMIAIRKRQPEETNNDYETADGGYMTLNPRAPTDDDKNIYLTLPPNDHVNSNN
UniProt Q96CS3: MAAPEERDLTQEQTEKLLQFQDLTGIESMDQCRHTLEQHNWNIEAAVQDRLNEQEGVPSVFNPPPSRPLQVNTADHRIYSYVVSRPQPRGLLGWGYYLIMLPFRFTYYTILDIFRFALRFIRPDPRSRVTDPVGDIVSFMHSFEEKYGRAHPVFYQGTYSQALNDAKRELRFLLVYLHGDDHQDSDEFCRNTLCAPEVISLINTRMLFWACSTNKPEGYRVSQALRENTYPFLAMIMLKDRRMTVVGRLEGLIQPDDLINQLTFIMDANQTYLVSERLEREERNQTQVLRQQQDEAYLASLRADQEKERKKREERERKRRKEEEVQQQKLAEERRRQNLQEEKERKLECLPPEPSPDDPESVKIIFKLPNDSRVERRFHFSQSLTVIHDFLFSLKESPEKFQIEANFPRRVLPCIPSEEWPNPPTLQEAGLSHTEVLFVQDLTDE

Question: Which “dose-dependent thermal stabilisation call” value does the source give for FIG4 (UniProt Q92562) here?
Answer: inactive: 0

Question: For FLI1 (UniProt Q01543), which “dose-dependent thermal stabilisation call” value is on record?
Answer: inactive: 0

Question: How did the “dose-dependent thermal stabilisation call” value turn out when FAM162A (UniProt Q96A26) was run?
Answer: inactive: 0

Question: For FAM116A (UniProt Q8IWF6), which “dose-dependent thermal stabilisation call” value is on record?
Answer: inactive: 0

Question: Which “dose-dependent thermal stabilisation call” value does the source give for EYA3 (UniProt Q99504) here?
Answer: inactive: 0

Question: Which “dose-dependent thermal stabilisation call” value does the source give for FAM177A1 (UniProt Q8N128) here?
Answer: inactive: 0

Question: For FDXR (UniProt P22570), which “dose-dependent thermal stabilisation call” value is on record?
Answer: inactive: 0

Question: How did the “dose-dependent thermal stabilisation call” value turn out when G6PD (UniProt P11413) was run?
Answer: inactive: 0

Question: For FBXL10 (UniProt Q8NHM5), which “dose-dependent thermal stabilisation call” value is on record?
Answer: inactive: 0

Question: For GBL (UniProt Q9BVC4), which “dose-dependent thermal stabilisation call” value is on record?
Answer: inactive: 0

Question: FUBP1 (UniProt Q96AE4) was tested. Which “dose-dependent thermal stabilisation call” value did it give?
Answer: inactive: 0

Question: How did the “dose-dependent thermal stabilisation call” value turn out when FTSJ3 (UniProt Q8IY81) was run?
Answer: inactive: 0

Question: For GARNL1 (UniProt Q6GYQ0), which “dose-dependent thermal stabilisation call” value is on record?
Answer: inactive: 0

Question: For FAM76A (UniProt Q8TAV0), which “dose-dependent thermal stabilisation call” value is on record?
Answer: inactive: 0

Question: FHIT (UniProt P49789) was tested. Which “dose-dependent thermal stabilisation call” value did it give?
Answer: inactive: 0

Question: Which “dose-dependent thermal stabilisation call” value does the source give for FAM173A (UniProt Q9BQD7) here?
Answer: inactive: 0

Question: How did the “dose-dependent thermal stabilisation call” value turn out when FAM134B (UniProt Q9H6L5) was run?
Answer: inactive: 0

Question: How did the “dose-dependent thermal stabilisation call” value turn out when GBA2 (UniProt Q9HCG7) was run?
Answer: inactive: 0

Question: How did the “dose-dependent thermal stabilisation call” value turn out when FIGNL1 (UniProt Q6PIW4) was run?
Answer: inactive: 0

Question: How did the “dose-dependent thermal stabilisation call” value turn out when FLJ20323 was run?
Answer: inactive: 0

Question: For FAM108B1 (UniProt Q5VST6), which “dose-dependent thermal stabilisation call” value is on record?
Answer: inactive: 0

Question: Which “dose-dependent thermal stabilisation call” value does the source give for FAM160B1 (UniProt Q5W0V3) here?
Answer: inactive: 0

Question: F13A1 (UniProt P00488) was tested. Which “dose-dependent thermal stabilisation call” value did it give?
Answer: inactive: 0

Question: For FBXO38 (UniProt Q6PIJ6), which “dose-dependent thermal stabilisation call” value is on record?
Answer: inactive: 0

Question: For FCGR2C (UniProt P31995), which “dose-dependent thermal stabilisation call” value is on record?
Answer: inactive: 0

Question: FAF2 (UniProt Q96CS3) was tested. Which “dose-dependent thermal stabilisation call” value did it give?
Answer: inactive: 0

Question: With FBXW9 (UniProt Q5XUX1) as the target, how does the “dose-dependent thermal stabilisation call” value read?
Answer: inactive: 0
